Results deposited as PubChem BioAssay AID1259326 (Drosophila RNAi Screening Center, 2017)

Test: 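Knock-downs that shift cellular ATP after a high zinc chloride dose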
Cell system: Drosophila S2R+ cells
Reagents: long dsRNA against Drosophila genes
Duration: about 5 days (4 days of RNAi, then 1 day of zinc)
Challenge: zinc chloride added to 15 mM final for one day
Measurement: 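Luminescent ATP signal marks surviving cells, read after RNAi for 4 days then 15 mM zinc chloride for 1 day; z-scores are replicate means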
Scale: averaged z-score: higher = more ATP than other wells, i.e. more surviving cells, after zinc; ATP luminescence: higher = more ATP, i.e. more surviving cells
Rule for the call: 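Active if the averaged z-score exceeds 1.5 or falls under -1.5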
Shown is one part, drawn at random, of 573 reagents tested. Over the whole deposit, 39 (6.8%) were called active. 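All actives have raised ATP, meaning more surviving cells; in these data active calls sit at averaged z-scores near 1.5 or above.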 The raw values are shown without normalisation. Unmarked entries are inactive. Reagents against one gene are numbered here. No sequences are given here. Not stated in the record: the amount of reagent.

What did the screen give for Atg7 (Autophagy-related 7) #1?
averaged z-score: -0.368; ATP luminescence, replicate 1: 1.04e5; ATP luminescence, replicate 2: 68675

With Atg7 (Autophagy-related 7) #2, what does the deposit list?
averaged z-score: -0.186; ATP luminescence, replicate 1: 76479; ATP luminescence, replicate 2: 76074

With Atg7 (Autophagy-related 7) #3, what does the deposit list?
averaged z-score: -0.105; ATP luminescence, replicate 1: 89190; ATP luminescence, replicate 2: 61832

How did the screen score Rpn1 (Regulatory particle non-ATPase 1) #1?
averaged z-score: 0.639; ATP luminescence, replicate 1: 96223; ATP luminescence, replicate 2: 1.01e5

What did the screen give for Rpn1 (Regulatory particle non-ATPase 1) #2?
averaged z-score: -0.296; ATP luminescence, replicate 1: 69944; ATP luminescence, replicate 2: 68761

What did the screen give for Rpn1 (Regulatory particle non-ATPase 1) #3?
averaged z-score: 0.719; ATP luminescence, replicate 1: 1.10e5; ATP luminescence, replicate 2: 75776
